No constants are given. Whether binding was seen depends on the method and setting. Binding seen in cells or lysates may run through a third protein. Here binding means that the protein was enriched with, or labelled near, the bait; the list need not be complete.
Target: T1, Upf1 (rat (endogenous in sympathetic neurons of Sprague Dawley rats and in PC12 cells))
T1 sequence: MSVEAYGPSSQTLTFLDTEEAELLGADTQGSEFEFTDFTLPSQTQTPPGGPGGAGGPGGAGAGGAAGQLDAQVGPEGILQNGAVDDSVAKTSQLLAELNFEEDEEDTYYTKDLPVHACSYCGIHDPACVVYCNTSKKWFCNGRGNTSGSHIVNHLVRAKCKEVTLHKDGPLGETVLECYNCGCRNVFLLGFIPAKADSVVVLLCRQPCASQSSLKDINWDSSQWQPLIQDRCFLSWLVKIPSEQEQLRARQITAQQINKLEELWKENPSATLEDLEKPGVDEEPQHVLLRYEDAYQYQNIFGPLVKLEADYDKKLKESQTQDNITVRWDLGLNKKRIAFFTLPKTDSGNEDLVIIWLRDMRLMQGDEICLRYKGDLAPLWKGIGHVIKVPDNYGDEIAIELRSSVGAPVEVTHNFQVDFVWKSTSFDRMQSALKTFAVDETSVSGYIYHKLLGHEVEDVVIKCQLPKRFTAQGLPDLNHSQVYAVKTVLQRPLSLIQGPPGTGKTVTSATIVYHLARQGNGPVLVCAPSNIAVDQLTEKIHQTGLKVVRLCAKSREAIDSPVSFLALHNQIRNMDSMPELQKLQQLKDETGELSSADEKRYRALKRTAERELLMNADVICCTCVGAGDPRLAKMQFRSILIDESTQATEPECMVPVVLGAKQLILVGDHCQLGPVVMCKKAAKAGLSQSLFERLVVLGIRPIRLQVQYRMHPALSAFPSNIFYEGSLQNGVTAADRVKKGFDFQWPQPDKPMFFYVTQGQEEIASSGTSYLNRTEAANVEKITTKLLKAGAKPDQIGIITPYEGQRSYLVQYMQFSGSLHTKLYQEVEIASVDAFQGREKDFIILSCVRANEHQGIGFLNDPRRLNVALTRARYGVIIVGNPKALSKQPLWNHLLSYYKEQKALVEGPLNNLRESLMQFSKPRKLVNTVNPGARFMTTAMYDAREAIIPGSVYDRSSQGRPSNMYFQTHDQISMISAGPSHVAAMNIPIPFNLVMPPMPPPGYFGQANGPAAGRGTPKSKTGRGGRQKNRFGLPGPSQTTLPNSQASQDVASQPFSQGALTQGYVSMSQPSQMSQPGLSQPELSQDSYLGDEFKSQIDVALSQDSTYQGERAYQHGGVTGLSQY
Experiment: affinity purification with mass spectrometry

Amino acid sequences for entries named in this document (tags omitted).
UniProt Q8CH84: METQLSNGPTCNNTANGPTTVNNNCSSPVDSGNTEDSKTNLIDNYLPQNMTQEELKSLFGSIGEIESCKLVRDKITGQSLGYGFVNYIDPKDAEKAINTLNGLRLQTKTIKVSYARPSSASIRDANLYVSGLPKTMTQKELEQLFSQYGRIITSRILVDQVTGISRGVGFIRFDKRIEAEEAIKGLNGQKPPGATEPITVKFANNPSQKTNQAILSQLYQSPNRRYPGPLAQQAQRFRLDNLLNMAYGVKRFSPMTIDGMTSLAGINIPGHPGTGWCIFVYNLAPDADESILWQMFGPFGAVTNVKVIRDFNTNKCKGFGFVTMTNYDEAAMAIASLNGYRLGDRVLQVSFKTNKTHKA
UniProt Q9QZ81: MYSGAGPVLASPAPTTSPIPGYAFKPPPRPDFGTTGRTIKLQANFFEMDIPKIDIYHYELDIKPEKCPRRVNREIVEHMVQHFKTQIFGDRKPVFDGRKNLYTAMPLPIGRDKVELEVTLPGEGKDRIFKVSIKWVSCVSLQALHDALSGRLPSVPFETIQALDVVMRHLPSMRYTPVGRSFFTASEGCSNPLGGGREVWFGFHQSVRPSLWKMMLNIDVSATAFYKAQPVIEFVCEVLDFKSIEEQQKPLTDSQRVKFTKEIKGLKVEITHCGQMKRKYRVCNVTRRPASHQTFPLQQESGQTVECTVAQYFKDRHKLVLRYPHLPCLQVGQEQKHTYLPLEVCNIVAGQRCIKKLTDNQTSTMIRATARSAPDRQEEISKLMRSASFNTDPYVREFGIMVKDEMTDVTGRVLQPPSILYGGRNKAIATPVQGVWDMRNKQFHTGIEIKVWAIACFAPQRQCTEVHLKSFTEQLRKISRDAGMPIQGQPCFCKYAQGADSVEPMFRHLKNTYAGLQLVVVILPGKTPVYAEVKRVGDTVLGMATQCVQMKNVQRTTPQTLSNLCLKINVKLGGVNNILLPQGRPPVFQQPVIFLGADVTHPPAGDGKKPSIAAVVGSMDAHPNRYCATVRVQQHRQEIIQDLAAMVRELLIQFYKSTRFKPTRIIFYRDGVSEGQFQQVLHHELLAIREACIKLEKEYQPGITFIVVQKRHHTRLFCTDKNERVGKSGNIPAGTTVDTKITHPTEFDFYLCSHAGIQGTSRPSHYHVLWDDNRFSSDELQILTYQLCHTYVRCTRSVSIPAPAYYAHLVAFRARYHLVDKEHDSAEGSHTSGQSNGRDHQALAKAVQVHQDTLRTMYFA
UniProt O09032: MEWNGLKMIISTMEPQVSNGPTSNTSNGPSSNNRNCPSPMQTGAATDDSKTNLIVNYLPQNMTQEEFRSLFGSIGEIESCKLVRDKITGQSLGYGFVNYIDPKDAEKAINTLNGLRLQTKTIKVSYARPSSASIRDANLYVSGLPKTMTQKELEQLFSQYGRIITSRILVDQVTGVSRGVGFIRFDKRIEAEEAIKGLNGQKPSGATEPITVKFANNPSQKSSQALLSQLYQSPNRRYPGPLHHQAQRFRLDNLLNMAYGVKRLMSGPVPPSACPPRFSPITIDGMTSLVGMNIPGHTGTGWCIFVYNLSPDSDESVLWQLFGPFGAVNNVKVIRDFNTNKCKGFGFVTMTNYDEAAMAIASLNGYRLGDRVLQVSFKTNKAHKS
UniProt Q7TP98: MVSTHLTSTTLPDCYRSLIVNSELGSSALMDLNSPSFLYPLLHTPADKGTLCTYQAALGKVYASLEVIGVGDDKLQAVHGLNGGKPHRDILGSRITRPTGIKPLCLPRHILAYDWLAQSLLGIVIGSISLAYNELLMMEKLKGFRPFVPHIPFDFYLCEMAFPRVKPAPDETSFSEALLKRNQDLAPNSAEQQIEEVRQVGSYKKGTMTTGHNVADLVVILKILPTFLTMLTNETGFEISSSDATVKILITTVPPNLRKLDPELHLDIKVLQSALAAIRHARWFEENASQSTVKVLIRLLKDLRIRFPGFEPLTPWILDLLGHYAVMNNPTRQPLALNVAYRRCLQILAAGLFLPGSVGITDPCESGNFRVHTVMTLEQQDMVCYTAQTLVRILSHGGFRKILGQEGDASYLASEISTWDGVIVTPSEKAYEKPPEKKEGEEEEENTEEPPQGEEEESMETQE

With “ELAV-like protein 2 (from UniProt Q8CH84 1-359)” the binding was “binds”.

With argonaute-2 (from UniProt Q9QZ81 1-860) the binding was “binds”.

For “ELAV-like protein 4 (from UniProt O09032 1-385)”, the binding was “binds”.

In the case of “interleukin enhancer-binding factor 2 (from UniProt Q7TP98 1-463)”, the binding is reported as “binds”.
